This is an account of results in paper PMC6943137, “A novel 5′-hydroxyl dinucleotide hydrolase activity for the DXO/Rai1 family of enzymes”.

This experiment concerns the target T1, Schizosaccharomyces pombe Rat1, full length, C-terminal hexa-histidine tag (from pET24d) (S. pombe) (UniProt P40848).
T1 sequence: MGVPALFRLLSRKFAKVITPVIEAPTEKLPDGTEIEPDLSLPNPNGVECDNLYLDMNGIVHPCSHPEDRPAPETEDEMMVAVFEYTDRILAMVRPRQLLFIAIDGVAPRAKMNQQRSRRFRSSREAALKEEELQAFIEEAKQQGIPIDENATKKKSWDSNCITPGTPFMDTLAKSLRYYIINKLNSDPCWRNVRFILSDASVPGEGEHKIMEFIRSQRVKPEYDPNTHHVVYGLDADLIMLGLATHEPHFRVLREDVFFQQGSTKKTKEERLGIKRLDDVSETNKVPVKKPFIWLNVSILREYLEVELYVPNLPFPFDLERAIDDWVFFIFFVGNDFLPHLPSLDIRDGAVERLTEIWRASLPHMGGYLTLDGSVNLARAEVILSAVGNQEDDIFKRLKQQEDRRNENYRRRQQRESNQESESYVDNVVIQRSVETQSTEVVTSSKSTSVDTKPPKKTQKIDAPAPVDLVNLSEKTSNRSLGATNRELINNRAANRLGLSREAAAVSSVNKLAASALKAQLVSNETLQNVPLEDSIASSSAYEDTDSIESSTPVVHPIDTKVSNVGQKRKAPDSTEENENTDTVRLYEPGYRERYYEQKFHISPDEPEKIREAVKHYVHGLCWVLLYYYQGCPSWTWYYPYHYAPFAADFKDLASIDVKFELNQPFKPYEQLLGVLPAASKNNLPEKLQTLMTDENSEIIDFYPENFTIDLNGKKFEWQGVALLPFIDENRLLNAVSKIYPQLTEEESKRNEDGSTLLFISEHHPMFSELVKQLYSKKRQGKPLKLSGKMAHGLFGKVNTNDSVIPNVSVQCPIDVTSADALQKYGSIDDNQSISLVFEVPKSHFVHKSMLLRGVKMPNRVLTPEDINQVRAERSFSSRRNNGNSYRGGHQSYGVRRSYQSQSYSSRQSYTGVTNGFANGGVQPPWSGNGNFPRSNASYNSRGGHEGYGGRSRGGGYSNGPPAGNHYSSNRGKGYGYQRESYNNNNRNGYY
Kind of experiment: co-purification (Ni-NTA affinity, then gel filtration); E. coli cells producing His6-tagged Rat1 lysed and sonicated together with cells producing untagged Rai1; lysate in 400 mM NaCl, 20 mM Tris pH 7.5, 20 mM imidazole on Ni-NTA resin; gel filtration (Sephacryl S-300) in 250 mM NaCl, 20 mM Tris pH 7.5, 2 mM DTT. A general note: In gel filtration, larger molecules generally elute earlier.

Results are given in words; binding and its absence hold for the method and conditions named. Some entries that bind do so weakly or less than the wild type. Tags and fused reporters may be left off the sequences shown.

B1: Schizosaccharomyces pombe Rai1 (no affinity tag, from pET26b) (enzyme, UniProt O13836 1-352)
chain: MLREFSFYDVPPAHVPPVSEPLEIACYSLSRDRELLLDDSKLSYYYPPPLFSDLNTGFPNRFHPPKSDPDPISIVKDVLMTKGIQMNSSFLTWRGLITKIMCAPLDPRNHWETYLVMDPTSGIIMMEERTRSETSYANQDRMCYWGYKFEAISTLPEIWDACSRDQIEQRDNQDVVPDEQYCSIVKINIGKSKLILAGEVDCIWDKKPCSAKESDVHSDDGTIEEDASNAENPNLHYVELKTSKKYPLENYGMRKKLLKYWAQSFLLGIGRIIIGFRDDNGILIEMKELFTHQIPKMLRPYFKPNDWTPNRLLVVLEHALEWIKQTVKQHPPSTEFTLSYTGGSKLVLRQII
Take B1: the binding entry was “binds”.
